Tested on: ApoE ko mice fed with high fat diet
Excerpt: 10 ApoE ko mice were fed with regular chow diet and used as negative control group. 50 ApoE ko mice were fed with high fat diet (35% kcal fat, 1% cholesterol) for 8 weeks, and then the plasma samples were collected for lipid profile measurement before the treatment. 50 ApoE ko mice were assigned into 5 groups based on the fasting overnight plasma TC and HDL level.
19 Mar. 2012 to 6 Apr. 2012: Group the mice based on the TC and HDL level and start the treatment with 3 doses of antibody APOA1 by i.p daily on the weekday (The first dose was administered by iv injection
13 Apr. 2012-14 May 2012: The treatment with antibody APOA1 was changed to i.p injection every two days (Monday, Wednesday, and Friday) per client's instruction.
Antibody products were administrated by intraperitoneal injection every two days (Monday, Wednesday, and Friday). and the positive compound was administered by p.o every day.
5.4. Body weight and blood glucose measurement: The body weight was weighed weekly during the period of treatment. The fasting overnight blood glucose was measured at the end of study by Roche glucometer.
5.5 24 h food intake measurement: 24 hours food intake for each cage was measured weekly
5.6. Plasma lipid profile measurement: About 300 ul of blood sample was collected from the orbital vein for each mouse and centrifuged at 7000 rpm for 5 min at 4° C. and the plasma lipid profile was measured by Roche Modular automatic biochemistry analyzer in DaAn Medical Laboratory
After RAAS antibody products treatment for 8 weeks, all mice were sacrificed. Measured body weight and collected blood sample for each mouse. Weighed liver weight and saved a tiny piece of liver into 4% paraformaldehyde (PFA) fixation solution for further analysis. […]
Scanning the glasses slides with the Aperio ScanScope system and analyze with the image proplus software to measure the area of atherosclerotic plaque session. The results were expressed as the percentage of the total aortic surface area covered by lesions. […]
The results were expressed as the Mean±SEM and statistically evaluated by student's t-test.

CC(C)c1c(C(=O)Nc2ccccc2)c(-c2ccccc2)c(-c2ccc(F)cc2)n1CC[C@@H](O)C[C@@H](O)CC(=O)O [Atorvastatin, reference compound]
plasma HDL (after 8 week treatment): significantly lower high density lipoprotein
plasma total cholesterol (TC) (after 8 week treatment, APOA1 low dose): significantly lower total cholesterol level
plasma TG level (after 8 weeks treatment): no effect
